Laboratory results: PubChem BioAssay AID652243 (Drosophila RNAi Screening Center, 2013)
Assay: 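Fly regulators of androgen-dependent reporter output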 (primary screen). Cell system: Drosophila S2R+ cells. Reagents: long dsRNA against Drosophila genes. Duration: 72 h (48 h, then 24 h hormone). Conditions: synthetic androgen R1881 at 10 nM for 24 h. Detection: 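Per-well raw luminescence of the androgen-driven firefly reporter and of the Renilla control, two replicates each, without normalisation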. Reading the numbers: firefly reporter light: higher = more light from androgen-responsive reporter; Renilla control light: higher = more constitutive control signal (cell number, transfection). Hit rule: 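Across duplicate plates, a knock-down whose log firefly/Renilla ratio shifted a set fold down or up from the GFP/LacZ control mean was a hit; the downward cut appears as both 1.5 and 3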. Calls: active = hit: reporter lowered or raised; inactive = no hit.
The deposit covers about 24,000 reagents; below is an unselected part of those that have a named target and a result. In the full data, 246 (1%) are marked active. 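Plates not normalised; calls are printed but the firefly/Renilla ratio behind them is not deposited; fold cut for lowering reported inconsistently.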 The raw values are shown without normalisation. Names joined by + are all predicted targets of the reagent. No sequences are given here. The record does not give: the amount of reagent.

no.	Gene	dsRNA	firefly reporter light, replicate 1	firefly reporter light, replicate 2	Renilla control light, replicate 1	Renilla control light, replicate 2	call
1	CG42383	DRSC21733	5.06e5	4.21e5	2.49e6	2.24e6	inactive
2	CG33483	DRSC14019	1.38e6	7.44e5	3.32e6	1.81e6	inactive
3	RIOK2	DRSC14413	1.86e5	2.07e5	2.53e6	2.07e6	inactive
4	RIOK2	DRSC36955					inactive
5	RIOK2	DRSC36956					inactive
6	Scox	DRSC03117	2.11e5	1.08e5	1.95e6	1.16e6	inactive
7	Scox	DRSC26366	4.60e5	4.44e5	5.51e5	6.06e5	inactive
8	CG5664	DRSC11782	3.81e5	4.73e5	3.29e6	4.54e6	inactive
9	Mkp + CG34140	DRSC08585	5.27e5	6.87e5	1.17e6	1.13e6	inactive
10	CG4596	DRSC15608	89967	99762	1.74e6	1.90e6	inactive
11	CG4596	DRSC25914	3.63e5	3.61e5	5.86e5	5.46e5	inactive
12	sloth2 + sloth1	DRSC17922	3.96e5	4.29e5	2.27e6	2.11e6	inactive
13	sloth2 + sloth1	DRSC17923	2.87e5	3.56e5	3.26e6	3.31e6	inactive
14	CG12355	DRSC09381	6.07e5	4.64e5	2.26e6	2.83e6	inactive
15	CG12355	DRSC09883	2.74e5	2.18e5	2.65e6	1.99e6	inactive
16	CG10943	DRSC09805	2.07e5	2.09e5	2.02e6	1.56e6	inactive
17	CG10943	DRSC29258	4.90e5	6.70e5	2.25e6	1.55e6	inactive
18	Hr39	DRSC03346	8.22e5	5.48e5	1.81e6	2.12e6	inactive
19	Hr39	DRSC26006	3.36e5	3.76e5	7.42e5	3.72e5	inactive
20	RhoGEF3	DRSC08266	6.92e5	8.40e5	1.22e6	1.47e6	inactive
21	RhoGEF3	DRSC08351	77688	84568	1.19e6	9.19e5	inactive
22	RhoGEF3	DRSC08352	1.03e5	86524	1.05e6	8.84e5	inactive
23	RhoGEF3	DRSC08353	70894	1.63e5	1.51e6	1.93e6	inactive
24	CG2059	DRSC18203	3.37e5	3.64e5	3.51e6	2.47e6	inactive
25	Ts	DRSC00795	1.23e5	1.25e5	9.41e5	1.08e6	inactive
26	Ts	DRSC22168	9.24e5	6.47e5	2.19e6	1.70e6	inactive
27	Actn3	DRSC14106	1.76e5	1.93e5	2.07e6	3.14e6	inactive
28	CG2061	DRSC19348	1.03e5	1.12e5	7.59e5	7.44e5	inactive
29	Vamp7	DRSC06599	3.41e5	2.64e5	2.31e6	1.97e6	inactive
30	Zip71B	DRSC09686	1.68e5	1.65e5	1.83e6	1.49e6	inactive
31	Zip71B	DRSC29491	6.89e5	8.37e5	1.06e6	1.06e6	inactive
32	casp	DRSC07164	6.41e5	6.60e5	2.37e6	1.89e6	inactive
33	CG13607	DRSC14610	2.70e5	3.05e5	3.11e6	2.90e6	inactive
34	Gpxl	DRSC06538	55883	73099	6.39e5	9.64e5	inactive
35	CG31100	DRSC14453	1.09e5	2.10e5	2.40e6	2.65e6	inactive
36	CG31100	DRSC14455	89070	1.12e5	2.26e6	1.54e6	inactive
37	CG14270	DRSC17913	2.59e5	2.70e5	3.03e6	3.67e6	inactive
38	CG34107	DRSC14554	98678	1.68e5	1.83e6	1.86e6	inactive
39	CG4849	DRSC15662	1.47e5	79874	7.27e5	5.30e5	inactive
40	CG4849	DRSC27175	4.00e5	3.68e5	5.04e5	4.95e5	inactive
41	Pis	DRSC20178	6.54e5	6.49e5	5.23e6	3.40e6	inactive
42	Pis	DRSC29976	4.70e5	2.19e5	1.26e6	1.21e6	inactive
43	PKD	DRSC16200	1.67e5	2.59e5	1.60e6	2.23e6	inactive
44	PKD	DRSC36937					inactive
45	PKD	DRSC36938					inactive
46	TM9SF2	DRSC03197	9.09e5	8.58e5	1.53e6	1.50e6	inactive
47	CG10576	DRSC09745	9.94e5	8.23e5	1.31e6	1.78e6	inactive
48	CG15141	DRSC02441	5.52e5	8.46e5	1.83e6	2.19e6	inactive
49	CG15141	DRSC02442	1.66e5	1.75e5	2.35e6	3.14e6	inactive
50	CG15141	DRSC29031	9.14e5	8.43e5	2.23e6	1.76e6	inactive
51	CG11000	DRSC12082	4.23e5	2.45e5	5.18e5	2.53e5	inactive
52	CG11000	DRSC12158	1.03e5	1.09e5	2.89e6	2.67e6	inactive
53	CG11000	DRSC27020	4.41e5	3.38e5	7.32e5	5.52e5	inactive
54	gw	DRSC17135	1.15e5	84831	4.87e5	2.95e5	active
55	gw	DRSC17160	44724	73817	2.30e6	2.24e6	active
56	gw	DRSC23497	28029	15566	6645	14785	inactive
57	Or1a	DRSC18689	3.35e5	3.43e5	3.73e6	3.19e6	inactive
58	Jhbp11	DRSC15183	1.93e5	1.85e5	1.52e6	2.48e6	inactive
59	Jhbp11	DRSC29679	5.67e5	6.91e5	9.60e5	9.60e5	inactive
60	CG1486	DRSC20508	1.16e5	1.12e5	9.32e5	8.55e5	inactive
61	CG1486	DRSC28958	6.01e5	5.43e5	1.61e6	1.11e6	inactive
62	RhoGDI	DRSC10919	81287	1.05e5	7.77e5	6.61e5	inactive
63	CG40249 (retired record)	DRSC37861	4.72e5	4.87e5	1.40e6	1.49e6	inactive
64	Syx7	DRSC11763	65372	87222	6.54e5	7.51e5	inactive
65	Hip1	DRSC09812	1.03e6	1.01e6	1.72e6	1.79e6	inactive
66	beat-VI	DRSC14474	2.35e5	1.99e5	2.95e6	2.96e6	inactive
67	beat-VI	DRSC14727	1.34e5	1.25e5	1.96e6	1.84e6	inactive
68	Gnpnat	DRSC15405	1.41e5	1.58e5	1.33e6	7.85e5	inactive
69	S-Lap7	DRSC06374	54802	70017	5.26e5	5.26e5	inactive
70	S-Lap7	DRSC27414	6.07e5	4.35e5	1.08e6	9.66e5	inactive
71	rumi	DRSC15177	83511	97696	7.08e5	7.35e5	inactive
72	rumi	DRSC29617	6.39e5	6.54e5	9.20e5	9.20e5	inactive
73	CG42516 + Pbp49	DRSC06073	1.12e6	1.35e6	9.10e5	1.20e6	inactive
74	CG32706 + CG6999	DRSC18412	3.14e5	3.74e5	2.38e6	2.17e6	inactive
75	CG32706 + CG6999	DRSC23954	6.48e5	6.72e5	1.09e6	1.03e6	inactive

Reformatted: 8 of the entries above
{"Gene":"Zip71B","dsRNA":"DRSC09686","firefly reporter light, replicate 1":1.68e5,"firefly reporter light, replicate 2":1.65e5,"Renilla control light, replicate 1":1.83e6,"Renilla control light, replicate 2":1.49e6,"call":"inactive"}
{"Gene":"Zip71B","dsRNA":"DRSC29491","firefly reporter light, replicate 1":6.89e5,"firefly reporter light, replicate 2":8.37e5,"Renilla control light, replicate 1":1.06e6,"Renilla control light, replicate 2":1.06e6,"call":"inactive"}
{"Gene":"casp","dsRNA":"DRSC07164","firefly reporter light, replicate 1":6.41e5,"firefly reporter light, replicate 2":6.60e5,"Renilla control light, replicate 1":2.37e6,"Renilla control light, replicate 2":1.89e6,"call":"inactive"}
{"Gene":"CG13607","dsRNA":"DRSC14610","firefly reporter light, replicate 1":2.70e5,"firefly reporter light, replicate 2":3.05e5,"Renilla control light, replicate 1":3.11e6,"Renilla control light, replicate 2":2.90e6,"call":"inactive"}
{"Gene":"Gpxl","dsRNA":"DRSC06538","firefly reporter light, replicate 1":55883,"firefly reporter light, replicate 2":73099,"Renilla control light, replicate 1":6.39e5,"Renilla control light, replicate 2":9.64e5,"call":"inactive"}
{"Gene":"CG31100","dsRNA":"DRSC14453","firefly reporter light, replicate 1":1.09e5,"firefly reporter light, replicate 2":2.10e5,"Renilla control light, replicate 1":2.40e6,"Renilla control light, replicate 2":2.65e6,"call":"inactive"}
{"Gene":"CG31100","dsRNA":"DRSC14455","firefly reporter light, replicate 1":89070,"firefly reporter light, replicate 2":1.12e5,"Renilla control light, replicate 1":2.26e6,"Renilla control light, replicate 2":1.54e6,"call":"inactive"}
{"Gene":"CG14270","dsRNA":"DRSC17913","firefly reporter light, replicate 1":2.59e5,"firefly reporter light, replicate 2":2.70e5,"Renilla control light, replicate 1":3.03e6,"Renilla control light, replicate 2":3.67e6,"call":"inactive"}
